Paper PMC5678581 (BMC Biology, 2017)

Sequences of proteins named here, by UniProt entry; tags and fusion partners are left off. A change or cut given only in a name is not applied to a line headed by its entry.
UniProt Q14258: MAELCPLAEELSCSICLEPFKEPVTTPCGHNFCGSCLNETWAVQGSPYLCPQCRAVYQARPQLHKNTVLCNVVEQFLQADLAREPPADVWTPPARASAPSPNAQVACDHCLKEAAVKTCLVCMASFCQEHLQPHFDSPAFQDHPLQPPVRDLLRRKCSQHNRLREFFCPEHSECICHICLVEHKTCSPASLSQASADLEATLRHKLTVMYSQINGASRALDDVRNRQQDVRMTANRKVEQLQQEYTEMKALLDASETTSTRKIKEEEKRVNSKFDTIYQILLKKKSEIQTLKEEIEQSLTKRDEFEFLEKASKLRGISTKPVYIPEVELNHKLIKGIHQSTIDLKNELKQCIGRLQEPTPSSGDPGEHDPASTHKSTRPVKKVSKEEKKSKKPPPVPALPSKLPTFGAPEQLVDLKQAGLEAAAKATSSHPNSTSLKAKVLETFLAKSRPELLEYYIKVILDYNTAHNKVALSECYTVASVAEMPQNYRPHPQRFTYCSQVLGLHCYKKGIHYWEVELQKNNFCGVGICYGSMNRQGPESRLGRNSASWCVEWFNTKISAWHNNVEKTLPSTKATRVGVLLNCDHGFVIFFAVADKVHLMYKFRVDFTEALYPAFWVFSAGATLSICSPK

Biological target: T7-tagged TRIM25ΔCC (human) (UniProt Q14258)
Assay: co-IP; extracts of HeLa TRIM25 KO cells co-overexpressing T7-tagged and EGFP-tagged TRIM25; anti-T7 antibody on protein A agarose; western blot with anti-TRIM25 and anti-T7 antibodies

binding: no binding
Substance: EGFP-tagged TRIM25 (wild type) (from UniProt Q14258 1-630)

Results are given in words; binding and its absence hold for the method and conditions named. In cells and extracts the contact can be indirect.
